Measured values published in patent publication US20120322060A1, “DIAGNOSIS AND MONITORING TREATMENT OF PSYCHIATRIC DISEASES WITH SPADIN AND RELATED METHODS” (CENTRE NATIONAL DE LE RECHERCHE SCIENTIFIQUE - CNRS -, priority 2011, published 2012).
Results are given in words; binding and its absence hold for the method and conditions named. In cells and extracts the contact can be indirect. Some entries that bind do so weakly or less than the wild type.

Chains of the proteins cited; added tags and fusions are not shown. Residues count along the entry.
UniProt P97438: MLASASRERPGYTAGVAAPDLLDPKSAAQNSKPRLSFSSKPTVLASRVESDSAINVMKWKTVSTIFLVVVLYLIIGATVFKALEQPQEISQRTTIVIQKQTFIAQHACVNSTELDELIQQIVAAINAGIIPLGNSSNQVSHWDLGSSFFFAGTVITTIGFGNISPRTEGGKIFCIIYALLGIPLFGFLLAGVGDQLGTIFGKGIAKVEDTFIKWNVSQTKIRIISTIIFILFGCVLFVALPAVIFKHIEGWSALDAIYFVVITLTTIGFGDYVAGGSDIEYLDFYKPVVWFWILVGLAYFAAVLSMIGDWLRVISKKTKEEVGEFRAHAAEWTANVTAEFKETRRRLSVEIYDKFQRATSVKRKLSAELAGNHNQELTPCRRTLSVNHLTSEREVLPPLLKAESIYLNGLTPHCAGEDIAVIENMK
UniProt Q6PHU5, residues 74-825: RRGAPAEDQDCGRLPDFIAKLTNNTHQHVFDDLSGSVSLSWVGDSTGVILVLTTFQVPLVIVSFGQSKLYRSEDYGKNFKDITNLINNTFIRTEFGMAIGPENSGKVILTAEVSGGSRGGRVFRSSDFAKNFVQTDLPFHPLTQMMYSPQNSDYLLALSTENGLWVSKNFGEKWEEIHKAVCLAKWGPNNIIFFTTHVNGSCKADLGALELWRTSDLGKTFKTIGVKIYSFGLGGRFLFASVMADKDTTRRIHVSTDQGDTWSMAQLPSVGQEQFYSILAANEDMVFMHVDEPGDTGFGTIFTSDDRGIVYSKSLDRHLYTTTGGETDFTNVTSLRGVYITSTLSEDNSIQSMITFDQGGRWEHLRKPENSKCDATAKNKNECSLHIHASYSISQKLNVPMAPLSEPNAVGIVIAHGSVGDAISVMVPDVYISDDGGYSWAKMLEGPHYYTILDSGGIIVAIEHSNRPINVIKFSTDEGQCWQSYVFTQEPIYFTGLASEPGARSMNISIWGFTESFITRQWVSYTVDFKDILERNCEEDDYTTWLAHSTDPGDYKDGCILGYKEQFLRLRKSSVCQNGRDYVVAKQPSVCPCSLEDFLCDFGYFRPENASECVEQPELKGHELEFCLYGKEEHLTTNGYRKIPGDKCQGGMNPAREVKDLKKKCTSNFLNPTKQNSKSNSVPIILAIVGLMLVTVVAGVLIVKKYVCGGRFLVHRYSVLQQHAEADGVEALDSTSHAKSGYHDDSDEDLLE

Biological target: TREK-1 channel (endogenous, mouse neurons) (mouse) (UniProt P97438)
Experiment: co-immunoprecipitation and Western blot, mouse cortical neurons

binding: binds
Substance: NTSR3/Sortilin (endogenous, mouse cortical neurons) (from UniProt Q6PHU5 74-825) (receptor)
